Measured values: PubChem BioAssay AID445 (National Center for Advancing Translational Sciences (NCATS), 2006)
This is one part of the list. Shown are side measurements of this screen, not its main read-out; they come without a call. Most of these compounds were active or inconclusive in the main read-out, so they are no random draw. The note in brackets gives the kind of curve behind each potency; many fits are weak.

Test: IkB Signaling
Settings: ABC-DLBCL IkBa-CBG/CBR dual luciferase ratio (green luciferase fused to IkBa over red control in OCI-Ly3 lymphoma cells), 4 h
Summary of the method: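 Curves were fitted separately to fusion (green), unfused (red) and ratio luminescence, then classed by r2, magnitude and activity. Cells: OCI-Ly3, 4 h compound plus doxycycline at 37C; 10 uM MG-132 defined full response.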

[1] = measured here: control luc red channel unless noted
[2] = measured here: IkB-luc green channel
[3] = measured here: control luc red channel

In the case of Cn1c(=O)cc(OCC(=O)N2CCC(N3CCCCC3)CC2)c2ccccc21, the AC50 [1] is reported as 31.6 µM [rising, single point] [measured here: IkB-luc green channel].

In the case of Cc1ccc(NC2=C(c3ccc(C(F)(F)F)cc3)C(=O)c3ccccc32)cc1C, the AC50 [1] is reported as 15.8 µM [falling, single point].

In the case of Cc1ccc(S(=O)(=O)c2nc(-c3ccccc3F)oc2N2CCCCC2)cc1, the AC50 [1] is reported as 20 µM [falling, single point].

For Cc1ccc(-c2cc(C(=O)NCc3cnn(C)c3C)c3cc(Br)ccc3n2)cc1, the AC50 [1] was 12.6 µM [falling, partial curve].

For N#CCCSCc1ccc2oc(C(=O)O)cc2c1, the AC50 [1] was 39.8 µM [rising, single point] [measured here: IkB-luc green channel].

In the case of Brc1ccc(CSc2nnc(-c3cnccn3)n2Cc2ccco2)cc1, the AC50 [1] is reported as 25.1 µM [falling, partial curve].

For CCOC(=O)c1ccccc1NC(=O)Cn1cc(C(=O)c2cccc(OC)c2)c(=O)c2ccc(C)nc21, the AC50 [1] was 39.8 µM [falling, single point].

In the case of Cc1ccc(CCNC(=O)c2ccc3c(c2)N(Cc2cccc(C)c2)C(=O)c2ccccc2S3(=O)=O)cc1, the AC50 [1] is reported as 25.1 µM [rising, partial curve, poor fit].

With CC(C)c1ccc(NC(=O)c2cc3c(s2)-c2ccccc2SC3)cc1 the AC50 [1] was 12.6 µM [falling, partial curve].

For O=C(CN1C(=O)COc2ccc(S(=O)(=O)N3CCCCCC3)cc21)NCc1ccc(Cl)cc1, the AC50 [1] was 10 µM [falling, partial curve, poor fit].

For CCOc1ccc(NC(=O)c2ccc3c(SCC(=O)O)c4c(nc3c2)CCCC4)cc1, the AC50 [1] was 3.16 µM [falling, full curve].

With Cc1ccc(C(=O)N2CCc3cc(CNS(=O)(=O)c4ccc(Cl)s4)ccc32)cc1 the AC50 [1] was 0.398 µM [falling, single point].

In the case of O=C(CN1CCN(S(=O)(=O)c2cc(Cl)ccc2Cl)CC1)Nc1cccc(F)c1, the AC50 [1] is reported as 39.8 µM [falling, single point].

For Fc1ccc(-c2nc(Nc3ccc(F)c(Cl)c3)nc3c2COc2ccccc2-3)cc1, the AC50 [1] was 10 µM [falling, partial curve].

In the case of CC(C(=O)Nc1cccc(C#N)c1)n1nc(-c2ccccc2)c2c(c1=O)CCCC2 (configuration not stated), the AC50 [1] is reported as 10 µM [falling, partial curve].

For CC1=C(C(=O)Nc2ccc(C)cc2C)C(c2ccccc2[N+](=O)[O-])n2ncc(C(=O)Nc3ccccc3)c2N1 (configuration not stated), the AC50 [1] was 20 µM [falling, single point].

For CCOC(=O)C1CCCN(C(=O)c2ccc3c(c2)N(Cc2ccccc2)C(=O)c2ccccc2S3(=O)=O)C1 (configuration not stated), the AC50 [1] was 39.8 µM [falling, single point].

With Cc1nn(C)c(C)c1CN(C)C(=O)c1cnn2c1NC(c1ccccc1)CC2C(F)(F)F (configuration not stated) the AC50 [1] was 1.58 µM [rising, partial curve] [measured here: IkB-luc green channel].

In the case of O=C(NCC(c1cccnc1)N1CCc2ccccc2C1)c1ccc(F)c(F)c1 (configuration not stated), the AC50 [1] is reported as 39.8 µM [falling, single point].

For CCOC(=O)c1ccccc1NC(=O)CSc1nnc(COc2ccccc2C)n1C, the AC50 [1] was 25.1 µM [falling, partial curve].

In the case of COc1cc(C(=O)Nc2nc(-c3cccs3)cs2)cc(OC)c1OC, the AC50 [1] is reported as 3.16 µM [falling, full curve, poor fit].

With CCS(=O)(=O)N1CCc2cc(C(=O)NCc3ccc(OC)cc3)ccc21 the AC50 [1] was 10 µM [falling, partial curve].

For c1ccc2c(c1)CCCN2Cc1nnnn1C1CCCC1, the AC50 [1] was 25.1 µM [rising, partial curve].

In the case of COC(=O)c1[nH]c2ccc(C)cc2c1NC(=O)CN1CCCc2ccccc21, the AC50 [1] is reported as 15.8 µM [falling, partial curve].

For CCOC(=O)c1ccc(NC(=O)CCCc2nc(-c3ccccc3Cl)no2)cc1, the AC50 [1] was 25.1 µM [falling, single point].

For CCOc1ccc(-c2cc(NC(=O)Nc3cccc(C(C)=O)c3)c(C(=O)OC)s2)cc1, the AC50 [1] was 7.94 µM [rising, full curve].

For [O-]/[N+](=C/c1cccnc1)c1ccc(Br)cc1, the AC50 [1] was 7.94 µM [falling, full curve, poor fit].

In the case of CCOC(=O)CSc1nc2ccc(NC(=O)c3ccc(C)cc3)cc2s1, the AC50 [1] is reported as 20 µM [falling, partial curve].

In the case of COc1cccc(N2CCN(C(=O)C(CCSC)NS(=O)(=O)c3ccc4c(c3)oc(=O)n4C)CC2)c1 (configuration not stated), the AC50 [1] is reported as 1 µM [rising, full curve].

In the case of CCc1ccc(CNC(=O)Cc2ccc(NC(=O)N3CCSc4ncccc43)cc2)cc1, the AC50 [1] is reported as 12.6 µM [falling, partial curve, poor fit].

In the case of CCn1c2ccccc2c2cc(CN3CCN(C(=O)c4ccco4)CC3)ccc21, the AC50 [1] is reported as 12.6 µM [falling, partial curve].

In the case of Cc1ccc(CNC(=O)Cn2nc(C)n3cccc3c2=O)cc1, the AC50 [1] is reported as 2.51 µM [rising, partial curve, poor fit].

In the case of CN(C)CCCSc1ccccc1NC(=O)/C=C\c1ccccc1, the AC50 [1] is reported as 0.158 µM [falling, full curve].

With Cc1cc(C)cc(C(=O)Nc2ccc(-c3nc4ncccc4o3)cc2)c1 the AC50 [1] was 10 µM [falling, single point].

In the case of Cc1c2cnn(CC(=O)N3CCN(c4ccc(F)cc4)CC3)c(=O)c2c(C)n1Cc1ccc(F)cc1, the AC50 [1] is reported as 12.6 µM [falling, partial curve].

In the case of COc1c(C)cc(S(=O)(=O)NCCc2c(C)[nH]c3ccccc23)c(C)c1C, the AC50 [1] is reported as 39.8 µM [falling, single point].

For COc1ccccc1CNC(=O)CCn1c(=O)c2ccccc2n(CC(=O)Nc2cccc(Cl)c2)c1=O, the AC50 [2] was 39.8 µM [rising, single point] and the AC50 [3] was 3.98 µM [falling, full curve].

For Cc1c(NC(=O)c2cc(-c3ccc(Cl)c(Cl)c3)on2)c(=O)n(-c2ccccc2)n1C, the AC50 [1] was 12.6 µM [falling, partial curve].

With CCc1cccc(-n2c(C)nc3c(cnn3-c3ccc(Cl)cc3)c2=O)c1 the AC50 [1] was 31.6 µM [falling, single point].

For Cc1cn2c(=O)cc(COc3cccc(NC(=O)c4ccccc4C)c3)nc2s1, the AC50 [1] was 0.794 µM [falling, full curve].

In the case of COc1ccc(OC)c(NC(=O)Cc2coc3ccc(C(C)C)cc23)c1, the AC50 [1] is reported as 20 µM [falling, single point].

For O=C(O)c1cccc(COc2ccccc2Cl)c1, the AC50 [1] was 2.51 µM [falling, full curve].

For CCOC(=O)c1c(-c2ccccc2)oc2ccc(N(C(C)=O)S(=O)(=O)c3cc(C)ccc3C)cc12, the AC50 [1] was 3.16 µM [falling, partial curve, poor fit].

With Cc1ccc(O)c(C(CC(=O)NCC2(c3ccccc3)CCCC2)c2ccccc2)c1 (configuration not stated) the AC50 [1] was 7.94 µM [falling, partial curve].

With CCc1c(C)nc(SCC(=O)N2CCN(c3ccccc3OC)CC2)[nH]c1=O the AC50 [1] was 12.6 µM [falling, partial curve].

In the case of COc1ccc(OC)c(NC(=O)c2cc3c(=O)oc4ccccc4c3s2)c1, the AC50 [1] is reported as 3.16 µM [falling, partial curve].

With CCN(CC)c1nn2c(=O)c(C(=O)NCCc3ccccc3)cnc2s1 the AC50 [1] was 3.98 µM [rising, partial curve].

For Cc1ccc(C)c(NC(=O)c2ccc3c(O)c(S(=O)(=O)c4ccc(Cl)cc4)c(=O)[nH]c3c2)c1, the AC50 [1] was 15.8 µM [falling, partial curve].

With O=C(NCC(c1cccnc1)N1CCN(c2ccccc2F)CC1)c1cccc(Cl)c1 (configuration not stated) the AC50 [1] was 15.8 µM [falling, partial curve].

In the case of Cn1cc(Cl)c(-c2nc3ccccc3[nH]2)n1, the AC50 [1] is reported as 12.6 µM [falling, partial curve].

In the case of CCOc1ccc(-c2nonc2NC(=O)c2oc3cc(C)ccc3c2C)cc1, the AC50 [1] is reported as 3.98 µM [falling, full curve].

In the case of Fc1ccc(-c2noc3ncnc(N4CCN(c5ccccc5)CC4)c23)cc1, the AC50 [1] is reported as 3.16 µM [falling, single point].

For O=C(NCc1ccc(F)cc1)c1ccc2c(Cl)c3c(nc2c1)CCCC3, the AC50 [1] was 10 µM [falling, partial curve].

In the case of CCOc1ccc(NC(=O)Cn2c(=O)n(-c3cccc(Cl)c3)c(=O)c3c2c2cc(C)ccc2n3C)cc1, the AC50 [1] is reported as 5.01 µM [falling, partial curve].

In the case of COc1ccc(S(=O)(=O)Nc2cccc(-c3ccc(N4CCC(C)CC4)nn3)c2)c(OC)c1, the AC50 [1] is reported as 2.51 µM [falling, full curve].

In the case of COc1cc(NC(=O)c2ccc3oc(=O)c(S(=O)(=O)c4ccccc4)cc3c2)cc(OC)c1, the AC50 [2] is reported as 6.31 µM [rising, single point] and the AC50 [3] is reported as 10 µM [falling, partial curve].

With CCOc1cccc(C2c3[nH]c4ccccc4c3CCN2C(=O)CSc2ccccc2)c1 (configuration not stated) the AC50 [1] was 2.51 µM [falling, full curve].

For Cc1cccc(C(=O)N2CCc3cc(CNC(=O)COc4ccc(Cl)cc4)ccc32)c1, the AC50 [1] was 39.8 µM [falling, single point].

With O=C(c1cc(-c2ccc(Cl)cc2)on1)N1CCOCC1 the AC50 [1] was 2 µM [falling, full curve].

With COC(=O)c1ccc(CSc2nnnn2-c2ccccc2)o1 the AC50 [1] was 31.6 µM [rising, single point] [measured here: IkB-luc green channel].
